Among the data in paper doi:10.1101/2024.07.16.603655 (bioRxiv, 2024) are binding values, retold here.

Sequences of proteins named here, by UniProt entry; tags and fusion partners are left off. A change or cut given only in a name is not applied to a line headed by its entry. A line that says so, or that is headed by a name, gives the form on record, which may keep a tag or linker.
eIF2α (subunit of translation initiation factor eIF2) (Q7ZWD3, form named): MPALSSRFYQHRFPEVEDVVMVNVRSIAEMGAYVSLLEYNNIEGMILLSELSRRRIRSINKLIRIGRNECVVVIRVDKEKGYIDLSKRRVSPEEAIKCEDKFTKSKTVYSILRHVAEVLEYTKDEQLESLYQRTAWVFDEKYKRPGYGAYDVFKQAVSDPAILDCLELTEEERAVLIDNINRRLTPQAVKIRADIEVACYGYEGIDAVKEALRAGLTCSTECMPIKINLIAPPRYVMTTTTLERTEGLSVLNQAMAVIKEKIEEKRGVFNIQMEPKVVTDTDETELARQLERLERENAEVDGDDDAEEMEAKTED

These are yes or no findings as the source states them, for the method shown. For part of these data: In cells and extracts the contact can be indirect. Some entries that bind do so weakly or less than the wild type. Tags and fused reporters may be left off the sequences shown.

Assay [1] addresses T1, L242R-6xHis (zebrafish Prkra L242R mutant) (zebrafish) (UniProt B0V3F8).
T1 sequence: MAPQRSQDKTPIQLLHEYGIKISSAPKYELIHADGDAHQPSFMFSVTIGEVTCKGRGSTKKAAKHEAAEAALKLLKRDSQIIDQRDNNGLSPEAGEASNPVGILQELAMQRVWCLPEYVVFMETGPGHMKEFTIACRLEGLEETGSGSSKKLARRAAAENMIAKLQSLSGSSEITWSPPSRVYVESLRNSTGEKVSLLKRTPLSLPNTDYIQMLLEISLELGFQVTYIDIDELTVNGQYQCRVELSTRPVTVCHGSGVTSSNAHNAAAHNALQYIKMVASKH
Briefly: co-IP.

For assay [2], the target named is Prkra overexpressed in zebrafish embryos as two differently tagged copies (6xMyc-Prkra and 6xHis-Prkra) (zebrafish) (UniProt B0V3F8). Briefly: co-IP.
The target of assay [3] is T1, L242R-6xHis (zebrafish Prkra L242R mutant) (zebrafish). Briefly: native gel or EMSA. A general note: In EMSA bound probe runs differently from free probe, usually more slowly.

As for “eIF2α (subunit of translation initiation factor eIF2) (from UniProt Q7ZWD3 1-315)”, in assay [1], the binding result was “no binding”.

B1: Prkra-6xHis (recombinant wild-type zebrafish Prkra) (natural protein, UniProt B0V3F8 1-282, looked up)
chain: MAPQRSQDKTPIQLLHEYGIKISSAPKYELIHADGDAHQPSFMFSVTIGEVTCKGRGSTKKAAKHEAAEAALKLLKRDSQIIDQRDNNGLSPEAGEASNPVGILQELAMQRVWCLPEYVVFMETGPGHMKEFTIACRLEGLEETGSGSSKKLARRAAAENMIAKLQSLSGSSEITWSPPSRVYVESLRNSTGEKVSLLKRTPLSLPNTDYIQMLLEISLELGFQVTYIDIDELTVNGQYQCLVELSTRPVTVCHGSGVTSSNAHNAAAHNALQYIKMVASKH
As for B1, the binding result in assay [2] was “binds”.

B2: L242R-6xHis (zebrafish Prkra L242R mutant) (protein, UniProt B0V3F8 1-282)
chain: MAPQRSQDKTPIQLLHEYGIKISSAPKYELIHADGDAHQPSFMFSVTIGEVTCKGRGSTKKAAKHEAAEAALKLLKRDSQIIDQRDNNGLSPEAGEASNPVGILQELAMQRVWCLPEYVVFMETGPGHMKEFTIACRLEGLEETGSGSSKKLARRAAAENMIAKLQSLSGSSEITWSPPSRVYVESLRNSTGEKVSLLKRTPLSLPNTDYIQMLLEISLELGFQVTYIDIDELTVNGQYQCRVELSTRPVTVCHGSGVTSSNAHNAAAHNALQYIKMVASKH
For B2, the binding result in assay [3] is recorded as “no binding”.
